A short description of the data set: general procedure: Fmoc solid-phase peptide synthesis; Fmoc-Thr(tBu)-SASRIN resin; HBTU/HOBt/DIPEA. The conditions noted are these: for step yield: late stage modification step.

Turning to FET-βAG-[W-c(CTFTYC)K], the step yield stood at 38%.
Turning to “propynoyl-β-Ala-Gly-D-Phe-Cys-Tyr-D-Trp-Lys-Thr-Cys-Thr-OH”, where the note is “oxidative folding step, one disulfide bridge, sequence written open”, the oxidative folding yield turned out to be 48%.
Substance “4b FETE-TOGA: FETE-TOGA: 3-[1-(2-fluoroethyl)-1,2,3-triazol-4-yl]propanoyl-[Tyr3]octreotate” returned a step yield of 56%.

The record behind these values is patent US10201625B2 (IMPERIAL COLLEGE, priority 2011, dated 2019).
